Reference: patent US20230310661A1, “OPHTHALMIC DYE” (Vitreq B.V., priority 2020, published 2023)
Some entries share one result that the patent states for a list of compounds.

System: ARPE19 cells
Experiment: Staining of dead cells and/or living cells: dye content in ARPE19 cells by spectrophotometry
Format: cell-based, human
Conditions: dye 0.1% w/v in PBS, 15 minutes staining, <0.07 = does not stain

| Structure (SMILES) | Aliving (maximum absorbance for living cells) |
| --- | --- |
| CCN(CC)c1ccc(C(=C2C=CC(=[N+](CC)CC)C=C2)c2ccccc2)cc1 [Brilliant Green] | > 0.07 |
| CC1(C)C(/C=C/C=C/C=C/C=C2\N(CCCCS(=O)(=O)O)c3ccc4ccccc4c3C2(C)C)=[N+](CCCCS(=O)(=O)[O-])c2ccc3ccccc3c21 [ICG, indocyanine green] | > 0.07 |
